{"source": "the supplement of paper PMC9938546", "note": "Structures can show the parent of a compound that is named as a salt. The list shows a part of the results. Plates or batches differ in their baseline, so values are only roughly comparable.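 HCT116-GFP, a KRAS-mutant, microsatellite-unstable human colorectal cancer line, constantly expresses green fluorescent protein; immune cells were from healthy donors. Cancer cell survival was tracked by live-cell imaging of green fluorescence, and activated immune cells by themselves reduced survival to roughly half.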"}
{"test_system": "HCT116-GFP", "assay": "HCT116-GFP viability (GFP intensity) relative to untreated HCT116-GFP monoculture control, co-culture with activated PBMCs; higher = less cancer cell killing", "settings": "culture: co-culture with anti-CD3/IL2 activated PBMCs 1:1; 10 µM; 72 h", "units": {"HCT116-GFP viability": "%"}}
{"smiles": "CC(C)NC[C@@H](O)COc1cccc2ccccc12", "note": "[(R)-Propranolol hydrochloride]", "HCT116-GFP viability": 61.2}
{"smiles": "CNCC(O)c1ccc(OC(=O)C(C)(C)C)c(OC(=O)C(C)(C)C)c1", "note": "(stereo unspecified) [Dipivefrin hydrochloride]", "HCT116-GFP viability": 70.8}
{"smiles": "CC(C)NCC(O)c1ccc(O)c(O)c1", "note": "(single isomer, unassigned; (+)) [(+)-Isoproterenol (+)-bitartrate salt]", "HCT116-GFP viability": 75.3}
{"smiles": "CCN(CC)CCc1nc(-c2ccccc2)no1", "note": "[Oxalamine citrate salt]", "HCT116-GFP viability": 79}
{"smiles": "Cc1c(N(C)CS(=O)(=O)O)c(=O)n(-c2ccccc2)n1C", "note": "[Dipyrone]", "HCT116-GFP viability": 70.5}
{"smiles": "CC(NCCC(c1ccccc1)c1ccccc1)c1ccccc1", "note": "(stereo unspecified) [Fendiline hydrochloride]", "HCT116-GFP viability": 41.2}
{"smiles": "O=c1[nH]c(=O)n(C2CCCO2)cc1F", "note": "(stereo unspecified) [Tegafur]", "HCT116-GFP viability": 7.7}
{"smiles": "COc1c2occc2c(OC)c2c(=O)cc(C)oc12", "note": "[Khellin]", "HCT116-GFP viability": 45.5}
{"smiles": "CC[C@H](C)C(=O)O[C@H]1CCC=C2C=C[C@H](C)[C@H](CC[C@@H]3C[C@@H](O)CC(=O)O3)[C@H]21", "note": "[Mevastatin]", "HCT116-GFP viability": 11.1}
{"smiles": "Nc1cc(C(Cl)=C(Cl)Cl)c(S(N)(=O)=O)cc1S(N)(=O)=O", "note": "[Clorsulon]", "HCT116-GFP viability": 56}
{"smiles": "CN1CCN(c2c(F)cc3c(=O)c(C(=O)O)cn(CCF)c3c2F)CC1", "note": "[Fleroxacin]", "HCT116-GFP viability": 58.9}
{"smiles": "C[C@H](CCC(=O)O)[C@H]1CC[C@H]2[C@@H]3[C@H](O)C[C@@H]4C[C@H](O)CC[C@]4(C)[C@H]3CC[C@]12C", "note": "[Chenodiol]", "HCT116-GFP viability": 49.6}
{"smiles": "CC(=O)OCC(CCn1cnc2cnc(N)nc21)COC(C)=O", "note": "[Famciclovir]", "HCT116-GFP viability": 51.2}
{"smiles": "NNc1nncc2ccccc12", "note": "[Hydralazine hydrochloride]", "HCT116-GFP viability": 33.4}
{"smiles": "Cc1nc(=O)c2cc(CN(C)c3ccc(C(=O)N[C@@H](CCC(=O)O)C(=O)O)s3)ccc2[nH]1", "note": "[Raltitrexed]", "HCT116-GFP viability": 23.5}
{"smiles": "CN1CCN(CCCN2c3ccccc3Sc3ccc(Cl)cc32)CC1", "note": "[Prochlorperazine dimaleate]", "HCT116-GFP viability": 48.7}
{"smiles": "O=c1oc2ccccc2c(O)c1Cc1c(O)c2ccccc2oc1=O", "note": "[Dicumarol]", "HCT116-GFP viability": 69.1}
{"smiles": "COc1ccc(C2CNC(=O)C2)cc1OC1CCCC1", "note": "(stereo unspecified) [Rolipram]", "HCT116-GFP viability": 74.5}
{"smiles": "O=S(=O)(O)c1cc(O)ccc1O", "note": "[Ethamsylate]", "HCT116-GFP viability": 48.8}
{"smiles": "CCC(=O)O[C@]1(C(=O)CCl)[C@@H](C)C[C@H]2[C@@H]3CCC4=CC(=O)C=C[C@]4(C)[C@@]3(F)[C@@H](O)C[C@@]21C", "note": "[Clobetasol propionate]", "HCT116-GFP viability": 80.2}
{"smiles": "c1ccc([C@H]2CN3CCSC3=N2)cc1", "note": "[Levamisole hydrochloride]", "HCT116-GFP viability": 39.7}
{"smiles": "O=C1OCCN1/N=C/c1ccc([N+](=O)[O-])o1", "note": "[Furazolidone]", "HCT116-GFP viability": 61.3}
{"smiles": "Nc1nc2n[nH]nc2c(=O)[nH]1", "note": "[Azaguanine-8]", "HCT116-GFP viability": 40}
{"smiles": "CN(C)c1nc(N(C)C)nc(N(C)C)n1", "note": "[Altretamine]", "HCT116-GFP viability": 70.1}
{"smiles": "CC(C)NCC(O)c1ccc2ccccc2c1", "note": "(stereo unspecified) [Pronethalol hydrochloride]", "HCT116-GFP viability": 52.2}
{"smiles": "C[C@H]1C[C@@H]2[C@H]([C@@H](O)C[C@@]3(C)[C@H]2CC[C@]3(O)C(=O)CO)[C@@]2(C)C=CC(=O)C=C12", "note": "[Methylprednisolone, 6-alpha]", "HCT116-GFP viability": 73.9}
{"smiles": "CCCNCC(O)COc1ccccc1C(=O)CCc1ccccc1", "note": "(stereo unspecified) [Propafenone hydrochloride]", "HCT116-GFP viability": 66.4}
{"smiles": "NC(=O)C(c1ccccc1)(c1ccccc1)[C@@H]1CCN(CCc2ccc3c(c2)CCO3)C1", "note": "[Darifenacin hydrobromide]", "HCT116-GFP viability": 48.1}
{"smiles": "COc1cc([C@@H]2c3cc4c(cc3[C@@H](O[C@@H]3O[C@@H]5CO[C@@H](C)O[C@H]5[C@H](O)[C@H]3O)[C@H]3COC(=O)[C@H]23)OCO4)cc(OC)c1O", "note": "[Etoposide]", "HCT116-GFP viability": 14.5}
{"smiles": "COc1ccccc1OCC(O)CN1CCN(CC(=O)Nc2c(C)cccc2C)CC1", "note": "(stereo unspecified) [Ranolazine]", "HCT116-GFP viability": 37.9}
{"smiles": "CC[C@H]1OC(=O)[C@H](C)[C@@H](O[C@H]2C[C@@](C)(OC)[C@@H](O)[C@H](C)O2)[C@H](C)[C@@H](O[C@@H]2O[C@H](C)C[C@H](N(C)C)[C@H]2O)[C@](C)(O)C[C@@H](C)[C@@H]2N[C@@H](COCCOC)O[C@H]([C@H]2C)[C@]1(C)O", "note": "[Dirithromycin]", "HCT116-GFP viability": 49.6}
{"smiles": "O=C1CC2(CCCC2)CC(=O)N1CCCCN1CCN(c2ncccn2)CC1", "note": "[Buspirone hydrochloride]", "HCT116-GFP viability": 36.3}
{"smiles": "C[C@H](O)C(=O)Nc1c(I)c(C(=O)NC(CO)CO)c(I)c(C(=O)NC(CO)CO)c1I", "note": "[Iopamidol]", "HCT116-GFP viability": 61.1}
{"smiles": "CC(C)CC(=O)N[C@H](C(=O)N[C@H](C(=O)N[C@@H](CC(C)C)[C@@H](O)CC(=O)N[C@@H](C)C(=O)N[C@@H](CC(C)C)[C@@H](O)CC(=O)O)C(C)C)C(C)C", "note": "[Pepstatin A]", "HCT116-GFP viability": 47.4}
{"smiles": "Nc1ccc(S(=O)(=O)Nc2ccnn2-c2ccccc2)cc1", "note": "[Sulfaphenazole]", "HCT116-GFP viability": 38.2}
{"smiles": "CO/N=C(\\C(=O)N[C@@H]1C(=O)N2C(C(=O)O)=C(COC(N)=O)CS[C@H]12)c1ccco1", "note": "[Cefuroxime sodium salt]", "HCT116-GFP viability": 68.7}
{"smiles": "O=C(NCC(O)CO)c1c(I)c(C(=O)NCC(O)CO)c(I)c(N(CCO)C(=O)CO)c1I", "note": "(stereo unspecified) [Ioversol]", "HCT116-GFP viability": 62.7}
{"smiles": "CC1Cc2ccccc2N1NC(=O)c1ccc(Cl)c(S(N)(=O)=O)c1", "note": "(stereo unspecified) [Indapamide]", "HCT116-GFP viability": 59.7}
{"smiles": "Cc1cc(CC(=O)O)n(C)c1C(=O)c1ccc(Cl)cc1", "note": "[Zomepirac sodium salt]", "HCT116-GFP viability": 69.6}
{"smiles": "O=C(O)COC(=O)Cc1ccccc1Nc1c(Cl)cccc1Cl", "note": "[Aceclofenac]", "HCT116-GFP viability": 21.8}
{"smiles": "Cc1cnc(NC(=O)C2=C(O)c3ccccc3S(=O)(=O)N2C)s1", "note": "[Meloxicam]", "HCT116-GFP viability": 52.3}
{"smiles": "CC1CC(OC(=O)C(O)c2ccccc2)CC(C)(C)N1C", "note": "(stereo unspecified) [Eucatropine hydrochloride]", "HCT116-GFP viability": 68.8}
{"smiles": "Cc1nnc(NS(=O)(=O)c2ccc(N)cc2)s1", "note": "[Sulfamethizole]", "HCT116-GFP viability": 86.7}
{"smiles": "CCN1CCN(c2cc3c(cc2F)c(=O)c(C(=O)O)cn3C2CC2)CC1", "note": "[Enrofloxacin]", "HCT116-GFP viability": 47.3}
{"smiles": "CCN1CCC[C@H]1CNC(=O)c1c(OC)ccc(Br)c1OC", "note": "[Remoxipride Hydrochloride]", "HCT116-GFP viability": 35.3}
{"smiles": "Oc1ccc(OCc2ccccc2)cc1", "note": "[Monobenzone]", "HCT116-GFP viability": 64.6}
